Source: PubChem BioAssay AID1053208 (Peter MacCallum Cancer Centre, 2014)
This is a random part of about 17,000 reagents tested. In the full data, 788 (4.7%) were called active. 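Calls rest on z-score classes alone; an extra cut-off of viability at most 70% of control was not applied to them.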

Purpose: 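Find knock-downs that sensitise mouse osteosarcoma cells to doxorubicin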 (primary screen)
System: mouse osteosarcoma cells, early-passage culture from an engineered mouse model of fibroblastic bone tumour
Reagents: siRNA pool against mouse genes, 40 nM
Time to read-out: about 120 h (48 h before drug, then 72 h with drug)
Challenge: doxorubicin 100 nM for 72 h, roughly 30-40% inhibitory dose
Detection: 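Viability read as ATP luminescence after 72 h of 100 nM doxorubicin or none, duplicate wells averaged, scaled to non-targeting siRNA, then expressed as robust z-scores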
Scale: viability z-score with doxorubicin and doxorubicin viability vs non-targeting: higher = more viable cells under doxorubicin; viability z-score without drug: higher = more viable cells with knock-down alone; z-score of drug to no-drug ratio: higher = less drug sensitisation by knock-down
Rule for the call: 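a pool counts as active when its viability z-score with doxorubicin is -2 or below and its z-score without drug lies between -2 and 2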

The first 3 entries, ahead of the listing:
no.	gene	combined z-score class	viability z-score with doxorubicin	viability z-score without drug	z-score of drug to no-drug ratio	doxorubicin viability vs non-targeting	Outcome
1	Klhdc10	low cell count with doxorubicin only	-2.02	-0.51	-1.69	0.76	active
2	Stat2	no change with or without drug	0	0.67	-0.34	0.94	inactive
3	Celf3	no change with or without drug	-1.12	1.18	-1.8	0.84	inactive

Results, from the first entry:
no.	gene	combined z-score class	viability z-score with doxorubicin	viability z-score without drug	z-score of drug to no-drug ratio	doxorubicin viability vs non-targeting	Outcome
1	Klhdc10	low cell count with doxorubicin only	-2.02	-0.51	-1.69	0.76	active
2	Stat2	no change with or without drug	0	0.67	-0.34	0.94	inactive
3	Celf3	no change with or without drug	-1.12	1.18	-1.8	0.84	inactive
4	Atp6v0b	no change with or without drug	-0.22	-1.18	0.79	0.92	inactive
5	Pstpip1	no change with or without drug	0.9	0.34	0.79	1.02	inactive
6	F2	no change with or without drug	-0.22	-0.51	0.22	0.92	inactive
7	Rbm10	high cell count without drug only	1.8	2.7	0.11	1.1	inactive
8	Nelfb	no change with or without drug	0	-0.67	0.56	0.94	inactive
9	Riok1	no change with or without drug	-0.67	0.67	-1.01	0.88	inactive
10	Frs3	no change with or without drug	-1.35	-1.18	-0.56	0.82	inactive
11	Bop1	low cell count without drug only	-0.9	-4.05	2.59	0.86	inactive
12	Sebox	high cell count without drug only	1.91	2.53	0.34	1.11	inactive
13	Or5t16	no change with or without drug	-0.22	0.51	-0.45	0.92	inactive
14	Lrrn2	low cell count without drug only	-1.01	-2.19	0.67	0.85	inactive
15	Srrm1	no change with or without drug	0.79	0	0.9	1.01	inactive
16	Atad2	no change with or without drug	-0.9	-0.84	-0.22	0.86	inactive
17	Dtnb	no change with or without drug	-1.24	0.84	-1.69	0.83	inactive
18	Nbn	no change with or without drug	0.9	-0.84	1.69	1.02	inactive
19	Map3k10	no change with or without drug	-0.22	-0.34	0.11	0.92	inactive
20	Adprhl1	high cell count with doxorubicin only	2.14	1.52	1.24	1.13	inactive
21	Mmel1	high cell count with doxorubicin only	2.36	1.18	1.69	1.15	inactive
22	Uqcrb	no change with or without drug	-0.67	-0.84	0	0.88	inactive
23	Pop4	no change with or without drug	0.9	0.51	0.67	1.02	inactive
24	Myl4	no change with or without drug	-0.45	-1.35	0.56	0.9	inactive
25	Itgb3	no change with or without drug	-0.45	1.01	-1.01	0.9	inactive
26	Zfp677	no change with or without drug	0.67	1.18	0	1	inactive
27	E2f5	high cell count with and without drug	2.81	3.04	0.79	1.19	inactive
28	A430090L17Rik	no change with or without drug	-0.56	-1.85	0.9	0.89	inactive
29	Cma1	no change with or without drug	-1.46	0.84	-1.91	0.81	inactive
30	Calml3	no change with or without drug	0.22	-0.84	1.01	0.96	inactive
31	Taf11	no change with or without drug	0.9	0.17	0.9	1.02	inactive
32	Itgbl1	no change with or without drug	-0.22	1.52	-1.12	0.92	inactive
33	Omg	no change with or without drug	-0.45	0.34	-0.56	0.9	inactive
34	Prag1	no change with or without drug	-0.56	-1.18	0.34	0.89	inactive
